## Screening data

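Luminescence from an EWS-FLI1 target-promoter (NR0B1) reporter, set against a CMV-promoter reporter, two days after silencing single genes in TC32 Ewing sarcoma cells. Each siRNA was applied at 20 nM. A z-score of the log NR0B1-over-CMV signal, less the median of siRNAs with the same seed; more negative means a stronger specific loss of the NR0B1 reporter.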

The strongest results of the screen are mostly left out here. Sequences are the guide (antisense) strand, without overhang.

strand,gene,seed-corrected z-score
AGUCGAAUGACUUAGACCC,LAMA2,0.02128
UUGCAUUUCUCUUUCAUUG,NXPE4,0.6348
AAUUGUCCAGAUAUUAACC,SC5D,-0.879
UUUGUUGUGCCCGAAAUAC,MGST2,-0.9922
AAAAGUCUCCUUUCGCUUC,THRAP3P1,0.1394
UUGUGGAUAUGUCUCUUGC,L1CAM,-0.1219
ACAGCUGUAAGUGCGGUGA,YPEL4,-0.7169
UUACAUCCAAACUAAGUUG,CHST10,-0.7414
UCAGUGUAUAGAUCAAGGG,OR4C6,0.3762
UAGGAAUCUUCUAUCGUUG,RAP1A,-0.4477
UACCAGGCUCUUAAUGCCC,HIST1H1A,-0.05924
UUAGCCUCAGGAAUUGGAC,ZNF750,-0.7471
UGUCAUUUGCUUCUUGUCC,OLIG2,0.7959
UCAGGUAAUGGAACUUGUG,HLA-DPA1,1.312
UUUCUUUUAGCUACCCUUC,LOC100507431,-0.168
UGAAGUUUCACGGCUGUGC,C19orf60,0.5443
AACUUCUACAUAAACCUGG,NMI,-0.7019
UGUCUAGUAAGGGCAGAAG,LOC732272,0.2395
CUCGCAUCCUUGUCUUUGC,LOC729056,-0.1882
UGAUGAGCAAGAGGGUAGG,TBC1D24,0.3078
UAACGGGUGAACUACAGAC,USP9Y,-1.408
UUUUUGUCCAUGUACAGCA,POTEA,0.3557
UUCAUUAGUGCUUAAAGGC,CST8,0.2867
UCAGAUUCCAGACAUAGCA,MLST8,0.08842
UAUGUCAUAAUCACUGCGG,PRSS12,-0.645
AAUAUUUCAUCCACUUUUC,GAR1,0.8697
UACCGCAUAGUUUACAUUC,ZNF14,0.5884
UCAGGUGUACUUUCUCUCC,SYCE1,-0.1512
AAAUCUACAAUCAUCUUAG,OR4K13,0.8173
UUCUGUAGGAUGUUGAUAC,TMEM161B,-1.665
UAGGUACUCAACCACAUCC,ZFYVE26,-0.8508
UGUUGUCCCAUUCACGACG,TMEM88,-0.2873
AGUUCAUUAAGCGAGGUGU,OR10C1,0.4939
UUGGAUUCUGUGAUAGUGG,LSAMP,0.8778
UCCAGUUCCAGGAUCAUCU,TNS4,0.3026
UCAGCAUGCACUAUUGUGG,PCP4L1,0.05798
UAUUGAUCCAAGGAGAAUC,GTF2I,-0.4378
AAUGGUAUCAACCAGACUC,NFKBIZ,-0.7777
UUGUCUCCCACCGUAAUGC,WDR92,-0.2164
UAGGCCUAGAAGCAUAUCC,DDI1,-0.4006
UGUAAGAACAAUACGAACC,NUDCD2,0.1384
GACCUUGGAGGUAUCCACC,BRICD5,-0.5591
UGUUCGAAGUGUUUUAUAC,NUP37,-0.3144
UUGGUGAGCGUGUAGAUGA,S1PR5,1.194
ACGGUGAAGAAUAAAAUCC,RBMS3,-0.5438
UUCUUGACUACGCCGAUCA,LAPTM5,-0.1349
UUUGGGUCCACUGUUUUUC,BMS1P21,0.1321
UUUCCUACUUUUCAGGUUG,TNP1,0.4722
UCGCAUACCAGAGAGCCCA,ZNF837,-0.04344

Once more, the final 6:

strand	gene	seed-corrected z-score
UUGGUGAGCGUGUAGAUGA	S1PR5	1.194
ACGGUGAAGAAUAAAAUCC	RBMS3	-0.5438
UUCUUGACUACGCCGAUCA	LAPTM5	-0.1349
UUUGGGUCCACUGUUUUUC	BMS1P21	0.1321
UUUCCUACUUUUCAGGUUG	TNP1	0.4722
UCGCAUACCAGAGAGCCCA	ZNF837	-0.04344

From PubChem BioAssay record AID1159506 (NCATS, 2015).